Data as given in PubChem BioAssay AID652243 (Drosophila RNAi Screening Center, 2013)

Aim: 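Fly genes required for human androgen receptor driven transcription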 (primary screen)
Cell system: Drosophila S2R+ cells
Reagent: long dsRNA against Drosophila genes
Duration: 72 h (48 h, then 24 h hormone)
Challenge: synthetic androgen R1881 at 10 nM for 24 h
Measurement: 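Firefly light from an androgen-responsive reporter and Renilla control light per well, raw and unnormalised, for each of two replicates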
Scale: firefly reporter light: higher = more light from androgen-responsive reporter; Renilla control light: higher = more constitutive control signal (cell number, transfection)
Hit rule: 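Across duplicate plates, a knock-down whose log firefly/Renilla ratio shifted a set fold down or up from the GFP/LacZ control mean was a hit; the downward cut appears as both 1.5 and 3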
Calls: active = hit: reporter lowered or raised; inactive = no hit
The screen tested about 24,000 reagents; below is an unselected part of those with a known target gene and a result. Of all reagents, 246 (1%) got an active call. 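Plates not normalised; calls are printed but the firefly/Renilla ratio behind them is not deposited; fold cut for lowering reported inconsistently.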 Raw values vary from plate to plate and are shown uncorrected. A number with no mark means an inactive call. Names joined by + are all predicted targets of the reagent. No sequences are given here. The record does not give: the amount of reagent.

gene	dsRNA	firefly reporter light, replicate 1	firefly reporter light, replicate 2	Renilla control light, replicate 1	Renilla control light, replicate 2
CG2120 (GeneID 31737)	DRSC18207	2.04e5	2.86e5	2.81e6	2.76e6
CG2120 (GeneID 31737)	DRSC26944	4.16e5	2.87e5	7.76e5	5.56e5
dlt (GeneID 46719)	DRSC08705	90337	88304	8.88e5	8.53e5
dlt (GeneID 46719)	DRSC26168	2.91e5	1.95e5	5.70e5	6.47e5
CG43327 + CG43328	DRSC05640	3.04e5	2.19e5	6.36e5	4.84e5
Polr1C (GeneID 33712)	DRSC02719	8.25e5	9.06e5	1.92e6	1.88e6
Sf3b5 (GeneID 50007)	DRSC14460	2.34e5	2.17e5	3.09e6	3.04e6
mRpL20 (GeneID 39477)	DRSC09828	2.02e5	1.58e5	2.66e6	2.46e6
Surf1 (GeneID 44498)	DRSC11295	87046	95831	1.19e6	1.20e6
Surf1 (GeneID 44498)	DRSC11394	9.61e5	9.62e5	1.84e6	2.20e6
CG17572 (GeneID 35182)	DRSC02629	1.32e5	1.33e5	1.61e6	1.08e6
Tep3 (GeneID 34045)	DRSC03452	2.20e5	1.89e5	1.74e6	1.38e6
CG34204 (GeneID 5740630)	DRSC38895	4.60e5	4.98e5	1.14e6	1.23e6
Sting (GeneID 36016)	DRSC06615	3.21e5	1.89e5	2.15e6	1.29e6
Sting (GeneID 36016)	DRSC29477	3.15e5	5.14e5	6.78e5	6.78e5
Gr22b (GeneID 117492)	DRSC20911	4.83e5	7.02e5	3.64e5	3.64e5
Idh3g (GeneID 43102)	DRSC15699	2.05e5	2.01e5	2.61e6	2.50e6
Idh3g (GeneID 43102)	DRSC26628	3.39e5	2.92e5	6.10e5	7.05e5
Ldsdh1 (GeneID 31726)	DRSC18219	5.92e5	5.25e5	4.67e6	4.21e6
Ldsdh1 (GeneID 31726)	DRSC26664	2.84e5	2.61e5	7.10e5	7.25e5
St3 (GeneID 37743)	DRSC04098	2.97e5	3.39e5	2.44e6	2.28e6
St3 (GeneID 37743)	DRSC04505	6.87e5	7.02e5	1.03e6	1.29e6
Cpsf6 (GeneID 38937)	DRSC10781	5.89e5	5.28e5	8.61e5	1.00e6
Pih1D1 (GeneID 34685)	DRSC02897	7.16e5	7.80e5	2.28e6	1.95e6
Pih1D1 (GeneID 34685)	DRSC28212	7.11e5	1.32e6	1.24e6	1.71e6

Laid out differently: results already given.
{"gene":"Ldsdh1 (GeneID 31726)","dsRNA":"DRSC18219","firefly reporter light, replicate 1":5.92e5,"firefly reporter light, replicate 2":5.25e5,"Renilla control light, replicate 1":4.67e6,"Renilla control light, replicate 2":4.21e6}
{"gene":"Ldsdh1 (GeneID 31726)","dsRNA":"DRSC26664","firefly reporter light, replicate 1":2.84e5,"firefly reporter light, replicate 2":2.61e5,"Renilla control light, replicate 1":7.10e5,"Renilla control light, replicate 2":7.25e5}
{"gene":"St3 (GeneID 37743)","dsRNA":"DRSC04098","firefly reporter light, replicate 1":2.97e5,"firefly reporter light, replicate 2":3.39e5,"Renilla control light, replicate 1":2.44e6,"Renilla control light, replicate 2":2.28e6}
{"gene":"St3 (GeneID 37743)","dsRNA":"DRSC04505","firefly reporter light, replicate 1":6.87e5,"firefly reporter light, replicate 2":7.02e5,"Renilla control light, replicate 1":1.03e6,"Renilla control light, replicate 2":1.29e6}
